These are yes or no findings as the source states them, for the method shown. Some results given as binding are weak or reduced against the parent protein; the word gives no strength.
Key:
[1] = molecular target: human BCMA-hIgG Fc fusion protein (human APRIL-R-hIgGFc, pJST538) (human); experiment: ELISA, receptor-Fc coated, FLAG-tagged ligand detected with anti-FLAG M2
[2] = molecular target: human BCMA-hIgG Fc fusion protein (human APRIL-R-hIgGFc, pJST538) (human); experiment: BIAcore, hBCMA-Ig on CM5 chip, ligand injected at 30 ug/ml
[3] = molecular target: human BCMA-hIgG Fc fusion protein (human APRIL-R-hIgGFc, pJST538) (human); experiment: immunoprecipitation from conditioned media with ProtG-Sepharose, anti-FLAG M2 blot

Chains of the proteins cited; added tags and fusions are not shown. Residues count along the entry.
UniProt Q9Y275, residues 136-285: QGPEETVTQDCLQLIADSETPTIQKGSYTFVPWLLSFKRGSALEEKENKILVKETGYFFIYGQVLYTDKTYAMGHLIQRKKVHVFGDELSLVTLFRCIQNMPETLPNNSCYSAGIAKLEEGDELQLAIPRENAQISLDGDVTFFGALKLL
UniProt Q9WU72, residues 127-309: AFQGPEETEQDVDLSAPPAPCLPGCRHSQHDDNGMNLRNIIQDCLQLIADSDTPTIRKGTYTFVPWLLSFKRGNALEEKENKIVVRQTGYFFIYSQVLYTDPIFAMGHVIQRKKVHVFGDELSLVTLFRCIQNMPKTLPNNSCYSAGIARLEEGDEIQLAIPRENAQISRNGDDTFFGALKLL

Row | binding [1] | binding [2] | binding [3] | Substance
1 | binds | binds | binds | FLAG-hBAFF (from UniProt Q9Y275 136-285) (ligand)
2 | – | binds | – | FLAG-mBAFF (from UniProt Q9WU72 127-309) (ligand)
